This series can be described thus: melt flow index determination of stabilised polypropylene (ASTM D-1238-70). The following applies: 0.2% of compound in base-stabilized polypropylene, mixed at 170° for 5 minutes.

In the case of `CN(C)c1ccc(P(Oc2ccc(C(C)(C)C)cc2C(C)(C)C)Oc2ccc(C(C)(C)C)cc2C(C)(C)C)cc1` [Example 1], the “Melt flow Index at 2.16 Kp/230°” value was determined as 3.1.
For `Cc1ccc(OP(Oc2ccc(C)cc2C(C)(C)C)c2ccc(N(C)C)cc2)c(C(C)(C)C)c1` [Example 2] the value was 3.0.
